Experimental data published in article PMC10858942.
Results are given in words; binding and its absence hold for the method and conditions named. In cells and extracts the contact can be indirect. A yes stands for co-enrichment or nearness to the bait. Other partners may have been found.

Chains of the proteins cited; added tags and fusions are not shown. Residues count along the entry.
UniProt P05091, residues 18-517: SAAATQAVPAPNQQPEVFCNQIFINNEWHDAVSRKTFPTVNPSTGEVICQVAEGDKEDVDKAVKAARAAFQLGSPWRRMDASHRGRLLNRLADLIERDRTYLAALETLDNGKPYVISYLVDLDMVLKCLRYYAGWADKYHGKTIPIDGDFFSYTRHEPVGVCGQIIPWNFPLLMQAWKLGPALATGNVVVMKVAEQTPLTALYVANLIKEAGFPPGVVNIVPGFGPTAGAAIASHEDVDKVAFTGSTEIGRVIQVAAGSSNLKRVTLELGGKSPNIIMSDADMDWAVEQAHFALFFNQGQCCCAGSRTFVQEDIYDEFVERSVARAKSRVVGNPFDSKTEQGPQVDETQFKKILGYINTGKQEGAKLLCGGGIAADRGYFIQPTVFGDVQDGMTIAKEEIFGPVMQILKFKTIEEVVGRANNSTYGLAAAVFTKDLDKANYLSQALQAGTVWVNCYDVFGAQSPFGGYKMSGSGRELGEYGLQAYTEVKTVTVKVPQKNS
UniProt P08238: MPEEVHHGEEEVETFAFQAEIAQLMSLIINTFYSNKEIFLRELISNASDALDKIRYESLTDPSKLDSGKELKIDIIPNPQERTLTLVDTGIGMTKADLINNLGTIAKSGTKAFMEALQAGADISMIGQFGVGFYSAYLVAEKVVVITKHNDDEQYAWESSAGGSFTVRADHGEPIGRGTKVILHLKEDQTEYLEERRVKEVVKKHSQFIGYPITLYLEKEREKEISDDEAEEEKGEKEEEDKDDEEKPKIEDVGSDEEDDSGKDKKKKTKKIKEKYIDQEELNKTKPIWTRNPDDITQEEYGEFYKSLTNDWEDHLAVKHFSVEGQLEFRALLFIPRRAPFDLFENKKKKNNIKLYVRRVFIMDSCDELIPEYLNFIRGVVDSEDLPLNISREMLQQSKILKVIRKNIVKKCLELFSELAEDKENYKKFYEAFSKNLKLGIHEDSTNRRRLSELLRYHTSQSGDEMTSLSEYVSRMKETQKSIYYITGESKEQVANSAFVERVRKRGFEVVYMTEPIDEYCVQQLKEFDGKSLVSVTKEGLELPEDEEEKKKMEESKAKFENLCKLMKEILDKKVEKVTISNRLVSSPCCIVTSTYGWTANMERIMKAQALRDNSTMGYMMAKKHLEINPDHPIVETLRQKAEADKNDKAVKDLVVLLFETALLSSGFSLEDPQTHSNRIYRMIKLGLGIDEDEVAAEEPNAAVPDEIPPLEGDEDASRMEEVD
UniProt P20700: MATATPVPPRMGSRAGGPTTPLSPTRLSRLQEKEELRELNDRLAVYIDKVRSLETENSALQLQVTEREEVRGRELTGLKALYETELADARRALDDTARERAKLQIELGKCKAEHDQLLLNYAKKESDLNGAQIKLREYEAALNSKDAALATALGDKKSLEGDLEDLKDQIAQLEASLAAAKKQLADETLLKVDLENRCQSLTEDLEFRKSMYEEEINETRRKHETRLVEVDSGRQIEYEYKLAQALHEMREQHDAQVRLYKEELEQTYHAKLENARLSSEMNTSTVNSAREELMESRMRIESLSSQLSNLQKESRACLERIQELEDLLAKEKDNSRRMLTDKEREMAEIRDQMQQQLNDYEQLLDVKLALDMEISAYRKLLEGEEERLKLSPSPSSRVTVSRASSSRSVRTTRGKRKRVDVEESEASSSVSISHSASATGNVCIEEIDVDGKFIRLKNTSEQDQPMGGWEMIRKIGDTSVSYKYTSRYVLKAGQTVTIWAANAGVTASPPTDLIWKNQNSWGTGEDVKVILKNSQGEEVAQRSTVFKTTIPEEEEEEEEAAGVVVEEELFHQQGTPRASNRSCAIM
UniProt O43791: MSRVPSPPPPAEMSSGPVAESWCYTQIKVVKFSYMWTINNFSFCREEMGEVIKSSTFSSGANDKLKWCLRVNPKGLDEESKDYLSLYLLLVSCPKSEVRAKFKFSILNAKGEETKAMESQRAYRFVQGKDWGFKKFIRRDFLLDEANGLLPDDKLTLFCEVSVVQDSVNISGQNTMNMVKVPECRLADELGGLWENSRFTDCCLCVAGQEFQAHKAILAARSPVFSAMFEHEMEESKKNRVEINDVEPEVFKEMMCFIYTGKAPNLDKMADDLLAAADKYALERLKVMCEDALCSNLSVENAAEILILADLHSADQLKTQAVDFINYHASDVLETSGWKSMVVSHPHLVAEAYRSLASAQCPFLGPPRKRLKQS

Target: Flag-BCLAF1 (UniProt Q9NYF8)
Assay: affinity purification with mass spectrometry; Flag-BCLAF1 exogenously expressed in and immunoprecipitated from HEK-293T cells; LC-MS/MS of the immunoprecipitate

Substance | binding
ALDH2 (from UniProt P05091 18-517) | binds
HSP90AA1 (from UniProt P07900 1-732) | binds
HSP90AB1 (from UniProt P08238 1-724) | binds
LMNB1 (from UniProt P20700 1-586) | binds
endogenous SPOP (HEK-293T cells) (from UniProt O43791 1-374) | binds
